The target in one assay is FLAG-TPR (human) (UniProt P12270). In words: co-IP; Flp-In FLAG-TPR U2OS cells treated with doxycycline for 4 h, lysed and immunoprecipitated with anti-FLAG M2 beads (protein A beads as control); input, immunoprecipitates and unbound fraction separated by SDS-PAGE and immunoblotted.
The next assay concerns the target FLAG-TPR (human), P12270. Described as above. The conditions noted are these: remark: other sources report otherwise.

Amino acid sequences for entries named in this document (tags omitted).
UniProt P12270: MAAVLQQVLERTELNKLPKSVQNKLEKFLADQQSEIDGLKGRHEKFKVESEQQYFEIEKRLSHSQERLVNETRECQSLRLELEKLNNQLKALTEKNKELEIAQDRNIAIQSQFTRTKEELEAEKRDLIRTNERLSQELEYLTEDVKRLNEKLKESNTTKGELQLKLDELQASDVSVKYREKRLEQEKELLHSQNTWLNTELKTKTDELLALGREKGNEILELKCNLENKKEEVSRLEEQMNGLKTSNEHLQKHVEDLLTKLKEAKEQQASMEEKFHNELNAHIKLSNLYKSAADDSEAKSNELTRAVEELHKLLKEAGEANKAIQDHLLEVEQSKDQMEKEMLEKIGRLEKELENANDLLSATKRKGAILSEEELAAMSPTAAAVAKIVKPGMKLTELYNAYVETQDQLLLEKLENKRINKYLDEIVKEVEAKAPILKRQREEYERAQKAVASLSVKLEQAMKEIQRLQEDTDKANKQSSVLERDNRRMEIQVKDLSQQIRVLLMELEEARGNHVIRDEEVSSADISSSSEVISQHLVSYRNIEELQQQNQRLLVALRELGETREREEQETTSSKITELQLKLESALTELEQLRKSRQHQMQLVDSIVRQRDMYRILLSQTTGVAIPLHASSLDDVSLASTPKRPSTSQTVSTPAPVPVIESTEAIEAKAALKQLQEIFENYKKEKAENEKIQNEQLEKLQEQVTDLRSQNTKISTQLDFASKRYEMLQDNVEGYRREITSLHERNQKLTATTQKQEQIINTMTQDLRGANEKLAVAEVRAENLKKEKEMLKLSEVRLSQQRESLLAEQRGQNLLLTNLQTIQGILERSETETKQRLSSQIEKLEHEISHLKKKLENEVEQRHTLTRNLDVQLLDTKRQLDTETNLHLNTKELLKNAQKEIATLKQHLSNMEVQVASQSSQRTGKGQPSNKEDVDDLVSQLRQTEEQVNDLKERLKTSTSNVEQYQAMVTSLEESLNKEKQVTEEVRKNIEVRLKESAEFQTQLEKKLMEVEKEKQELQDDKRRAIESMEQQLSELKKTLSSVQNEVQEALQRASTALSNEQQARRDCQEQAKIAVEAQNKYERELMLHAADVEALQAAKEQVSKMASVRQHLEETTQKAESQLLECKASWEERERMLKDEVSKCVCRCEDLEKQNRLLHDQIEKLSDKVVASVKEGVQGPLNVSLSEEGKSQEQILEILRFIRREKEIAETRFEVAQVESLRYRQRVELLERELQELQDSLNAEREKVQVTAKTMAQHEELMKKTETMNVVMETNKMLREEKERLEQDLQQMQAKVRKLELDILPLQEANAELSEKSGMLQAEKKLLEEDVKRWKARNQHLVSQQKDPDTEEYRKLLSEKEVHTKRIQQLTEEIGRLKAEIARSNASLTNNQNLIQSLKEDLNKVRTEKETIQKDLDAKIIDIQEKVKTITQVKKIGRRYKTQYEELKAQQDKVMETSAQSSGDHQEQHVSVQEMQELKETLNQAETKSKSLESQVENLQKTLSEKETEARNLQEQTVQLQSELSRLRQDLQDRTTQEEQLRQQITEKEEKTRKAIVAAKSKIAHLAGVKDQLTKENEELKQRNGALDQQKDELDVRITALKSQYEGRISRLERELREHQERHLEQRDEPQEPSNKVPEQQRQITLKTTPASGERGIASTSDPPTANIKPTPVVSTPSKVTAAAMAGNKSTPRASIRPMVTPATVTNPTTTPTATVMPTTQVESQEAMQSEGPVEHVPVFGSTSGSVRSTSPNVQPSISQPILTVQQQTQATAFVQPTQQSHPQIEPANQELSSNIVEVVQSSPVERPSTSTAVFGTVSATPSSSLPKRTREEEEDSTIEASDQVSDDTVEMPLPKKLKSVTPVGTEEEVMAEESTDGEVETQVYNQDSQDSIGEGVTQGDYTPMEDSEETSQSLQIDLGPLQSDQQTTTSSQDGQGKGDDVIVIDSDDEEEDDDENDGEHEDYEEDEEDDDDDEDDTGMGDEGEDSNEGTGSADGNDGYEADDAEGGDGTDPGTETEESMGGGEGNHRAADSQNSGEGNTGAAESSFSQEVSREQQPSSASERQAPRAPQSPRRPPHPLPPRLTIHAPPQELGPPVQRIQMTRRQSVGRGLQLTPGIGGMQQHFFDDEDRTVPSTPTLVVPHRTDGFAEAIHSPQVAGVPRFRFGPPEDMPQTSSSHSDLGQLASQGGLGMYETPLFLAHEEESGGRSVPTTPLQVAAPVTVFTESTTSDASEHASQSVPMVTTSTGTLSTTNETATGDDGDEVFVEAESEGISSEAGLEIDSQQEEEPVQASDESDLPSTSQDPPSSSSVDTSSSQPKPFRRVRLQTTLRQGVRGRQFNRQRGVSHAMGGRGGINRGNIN
UniProt Q13838: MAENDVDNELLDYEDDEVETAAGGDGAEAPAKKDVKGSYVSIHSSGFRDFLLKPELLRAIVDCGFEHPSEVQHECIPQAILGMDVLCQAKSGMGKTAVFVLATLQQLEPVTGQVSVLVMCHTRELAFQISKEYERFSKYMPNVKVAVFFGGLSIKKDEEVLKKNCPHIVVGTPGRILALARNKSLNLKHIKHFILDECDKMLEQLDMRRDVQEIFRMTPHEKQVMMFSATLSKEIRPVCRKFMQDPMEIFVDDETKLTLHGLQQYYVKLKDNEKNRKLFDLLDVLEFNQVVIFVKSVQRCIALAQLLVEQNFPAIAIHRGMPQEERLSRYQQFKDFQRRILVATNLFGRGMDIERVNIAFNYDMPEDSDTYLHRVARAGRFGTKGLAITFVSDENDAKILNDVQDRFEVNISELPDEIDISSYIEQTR

Results are given in words; binding and its absence hold for the method and conditions named. Binding seen in cells or lysates may run through a third protein. Some binding calls cover weakened binding; strength is not graded here.

With UAP56 (from UniProt Q13838 1-428), in the assay with FLAG-TPR (human), the binding result is “binds”.

B1: Nxf1, Q9UBU9 1-619 (protein)
chain: MADEGKSYSEHDDERVNFPQRKKKGRGPFRWKYGEGNRRSGRGGSGIRSSRLEEDDGDVAMSDAQDGPRVRYNPYTTRPNRRGDTWHDRDRIHVTVRRDRAPPERGGAGTSQDGTSKNWFKITIPYGRKYDKAWLLSMIQSKCSVPFTPIEFHYENTRAQFFVEDASTASALKAVNYKILDRENRRISIIINSSAPPHTILNELKPEQVEQLKLIMSKRYDGSQQALDLKGLRSDPDLVAQNIDVVLNRRSCMAATLRIIEENIPELLSLNLSNNRLYRLDDMSSIVQKAPNLKILNLSGNELKSERELDKIKGLKLEELWLDGNSLCDTFRDQSTYISAIRERFPKLLRLDGHELPPPIAFDVEAPTTLPPCKGSYFGTENLKSLVLHFLQQYYAIYDSGDRQGLLDAYHDGACCSLSIPFIPQNPARSSLAEYFKDSRNVKKLKDPTLRFRLLKHTRLNVVAFLNELPKTQHDVNSFVVDISAQTSTLLCFSVNGVFKEVDGKSRDSLRAFTRTFIAVPASNSGLCIVNDELFVRNASSEEIQRAFAMPAPTPSSSPVPTLSPEQQEMLQAFSTQSGMNLEWSQKCLQDNNWDYTRSAQAFTHLKAKGEIPEVAFMK
Turning to B1, the binding entry with FLAG-TPR (human), P12270 is “binds”.

The values above are taken from article PMC7672458.
